For the experiment, the target named is T1, Aplip1-GFP (pan-neuronally driven cDNA construct) (D. melanogaster) (UniProt Q9W0K0).
T1 sequence: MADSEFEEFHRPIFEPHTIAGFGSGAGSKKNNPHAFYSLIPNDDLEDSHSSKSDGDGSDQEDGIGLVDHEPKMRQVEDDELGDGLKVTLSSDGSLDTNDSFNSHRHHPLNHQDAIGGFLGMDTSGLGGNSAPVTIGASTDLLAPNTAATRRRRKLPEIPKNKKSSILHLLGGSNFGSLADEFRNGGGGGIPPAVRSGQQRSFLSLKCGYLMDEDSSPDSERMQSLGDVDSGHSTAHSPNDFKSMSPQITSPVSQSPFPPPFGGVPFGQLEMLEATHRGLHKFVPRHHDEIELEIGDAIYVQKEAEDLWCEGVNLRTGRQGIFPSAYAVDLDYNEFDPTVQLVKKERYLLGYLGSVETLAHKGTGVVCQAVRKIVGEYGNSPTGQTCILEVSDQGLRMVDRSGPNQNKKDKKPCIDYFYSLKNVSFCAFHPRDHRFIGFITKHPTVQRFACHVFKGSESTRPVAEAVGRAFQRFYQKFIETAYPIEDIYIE
Description: co-IP; anti-GFP (GFP-Trap-A beads) from adult fly head extract (synaptic membrane / active zone protein-enriched fraction) of elav-Gal4 > UAS-Aplip1^GFP; deoxycholate and Triton X-100 lysate, overnight 4°C; Western blot; controls plain beads and GFP trapped beads.

No constants are given. Whether binding was seen depends on the method and setting. In cells and extracts the contact can be indirect. A result given as binding can be weak or reduced; the word gives no strength. Sequences can lack the tags named with a protein.

Regarding RIM-binding protein (RBP), endogenous, the binding result is given as “binds”.

Source of the values: paper PMC4536467, “A high affinity RIM-binding protein/Aplip1 interaction prevents the formation of ectopic axonal active zones” (eLife, 2015).
